Binding data for one substance are collected here from paper PMC10701957.

Sequences of proteins named here, by UniProt entry; tags and fusion partners are left off.
UniProt P12814: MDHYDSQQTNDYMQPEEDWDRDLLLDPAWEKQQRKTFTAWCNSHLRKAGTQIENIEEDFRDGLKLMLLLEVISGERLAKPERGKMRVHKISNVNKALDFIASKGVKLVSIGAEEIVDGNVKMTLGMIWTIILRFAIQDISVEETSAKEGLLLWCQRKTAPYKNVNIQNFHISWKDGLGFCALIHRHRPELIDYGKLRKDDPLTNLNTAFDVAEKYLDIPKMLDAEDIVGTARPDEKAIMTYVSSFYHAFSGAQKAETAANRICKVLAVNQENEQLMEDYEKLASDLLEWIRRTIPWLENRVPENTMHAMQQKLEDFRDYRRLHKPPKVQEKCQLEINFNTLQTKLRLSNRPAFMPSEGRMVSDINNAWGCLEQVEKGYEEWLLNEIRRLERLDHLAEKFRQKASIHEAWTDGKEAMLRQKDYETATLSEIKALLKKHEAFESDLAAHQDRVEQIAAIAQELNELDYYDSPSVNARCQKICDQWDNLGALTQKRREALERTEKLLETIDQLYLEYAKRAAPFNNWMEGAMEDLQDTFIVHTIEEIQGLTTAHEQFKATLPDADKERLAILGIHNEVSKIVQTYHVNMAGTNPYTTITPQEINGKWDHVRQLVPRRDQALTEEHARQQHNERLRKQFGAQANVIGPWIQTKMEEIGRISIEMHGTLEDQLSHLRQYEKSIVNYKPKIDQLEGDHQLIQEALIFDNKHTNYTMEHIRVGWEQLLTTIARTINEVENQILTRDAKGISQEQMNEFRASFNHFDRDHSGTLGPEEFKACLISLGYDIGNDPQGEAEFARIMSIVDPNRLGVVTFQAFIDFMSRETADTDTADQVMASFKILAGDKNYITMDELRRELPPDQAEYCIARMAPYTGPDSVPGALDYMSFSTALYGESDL
UniProt P35579: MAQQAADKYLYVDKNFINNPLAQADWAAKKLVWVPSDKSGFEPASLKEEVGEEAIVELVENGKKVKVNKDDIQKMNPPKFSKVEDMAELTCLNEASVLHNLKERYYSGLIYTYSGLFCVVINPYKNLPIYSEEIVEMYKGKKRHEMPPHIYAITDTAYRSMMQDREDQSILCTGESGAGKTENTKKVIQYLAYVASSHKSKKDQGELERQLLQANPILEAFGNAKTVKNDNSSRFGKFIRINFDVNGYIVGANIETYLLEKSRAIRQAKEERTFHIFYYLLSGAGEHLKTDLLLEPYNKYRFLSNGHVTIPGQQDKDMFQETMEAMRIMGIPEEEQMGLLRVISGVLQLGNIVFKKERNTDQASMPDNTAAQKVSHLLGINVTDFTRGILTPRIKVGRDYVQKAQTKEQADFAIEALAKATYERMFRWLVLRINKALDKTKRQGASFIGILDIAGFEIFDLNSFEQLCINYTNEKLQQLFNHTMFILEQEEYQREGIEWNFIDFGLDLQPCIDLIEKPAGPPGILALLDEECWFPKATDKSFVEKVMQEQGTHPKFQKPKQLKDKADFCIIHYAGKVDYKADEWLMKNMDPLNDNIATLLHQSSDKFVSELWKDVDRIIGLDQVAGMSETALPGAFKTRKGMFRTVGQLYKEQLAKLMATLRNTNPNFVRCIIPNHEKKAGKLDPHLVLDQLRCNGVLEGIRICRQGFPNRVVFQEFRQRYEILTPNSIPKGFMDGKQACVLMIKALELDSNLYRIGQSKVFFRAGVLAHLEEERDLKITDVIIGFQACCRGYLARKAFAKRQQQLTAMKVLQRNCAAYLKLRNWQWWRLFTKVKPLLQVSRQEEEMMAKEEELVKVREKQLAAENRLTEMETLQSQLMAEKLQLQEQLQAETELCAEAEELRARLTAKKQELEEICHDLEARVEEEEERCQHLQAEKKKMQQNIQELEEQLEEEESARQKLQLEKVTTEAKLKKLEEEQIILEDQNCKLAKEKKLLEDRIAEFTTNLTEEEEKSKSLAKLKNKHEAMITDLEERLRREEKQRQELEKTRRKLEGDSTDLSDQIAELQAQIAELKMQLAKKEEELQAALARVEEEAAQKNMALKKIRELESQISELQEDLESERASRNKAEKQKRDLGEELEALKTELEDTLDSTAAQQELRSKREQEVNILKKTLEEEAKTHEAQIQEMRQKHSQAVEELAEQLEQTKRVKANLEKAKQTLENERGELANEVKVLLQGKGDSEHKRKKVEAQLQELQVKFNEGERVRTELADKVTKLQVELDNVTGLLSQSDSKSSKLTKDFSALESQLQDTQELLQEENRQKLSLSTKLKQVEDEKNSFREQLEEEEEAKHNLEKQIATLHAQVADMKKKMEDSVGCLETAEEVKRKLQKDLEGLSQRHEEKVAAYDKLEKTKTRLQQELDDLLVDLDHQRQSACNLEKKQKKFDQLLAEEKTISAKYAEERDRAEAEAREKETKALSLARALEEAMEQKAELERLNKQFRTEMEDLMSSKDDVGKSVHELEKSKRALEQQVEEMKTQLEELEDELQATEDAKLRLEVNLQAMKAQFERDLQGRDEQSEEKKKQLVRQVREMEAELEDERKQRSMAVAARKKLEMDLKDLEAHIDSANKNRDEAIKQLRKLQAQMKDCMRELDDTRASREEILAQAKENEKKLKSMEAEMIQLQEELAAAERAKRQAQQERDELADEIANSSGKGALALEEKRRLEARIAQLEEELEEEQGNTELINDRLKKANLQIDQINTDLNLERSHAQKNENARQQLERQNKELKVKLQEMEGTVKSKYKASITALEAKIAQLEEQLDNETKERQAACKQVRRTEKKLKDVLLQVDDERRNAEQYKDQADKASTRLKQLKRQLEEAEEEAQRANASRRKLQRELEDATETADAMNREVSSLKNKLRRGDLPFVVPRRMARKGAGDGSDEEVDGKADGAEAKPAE

The target in this test is alpha-actinin 1 (ACTN1) (human (endogenous in SCC-1cisR)) (UniProt P12814). Description: affinity purification with mass spectrometry; IP of ACTN1; co-precipitated proteins separated by SDS-PAGE, candidate bands digested with trypsin, LC-MS/MS.

No constants are given. Whether binding was seen depends on the method and setting. Binding seen in cells or lysates may run through a third protein. These calls come from enrichment with a bait or labelling near it, and not all partners need be listed.

As for “myosin heavy chain 9 (MYH9) (from UniProt P35579 1-1960)”, the binding result is listed as “binds”.
